Earlier results, collected in US20210123061A1, “METHODS AND COMPOSITIONS FOR TREATING INFLAMMATORY DISEASE OR DISORDER” (THE BRIGHAM AND WOMEN'S HOSPITAL, INC., priority 2018, published 2021).
At least one structure is not confirmed: it was looked up by name or label, or the drawing left a doubt.

System: RSK1 (RPS6KA1) gene expression
Conditions: Table 1; pert_type trt_cp = small molecule, trt_sh = shRNA; cited from earlier work

## COc1cccc2cc(-c3nc([C@H]4CC[C@H](C(=O)O)CC4)n4ncnc(N)c34)[nH]c12 [OSI-027]
  RSK1 (agents that alter RSK1 expression): −1.06
